Laboratory results as given in PMC7819943, “Rice protein-binding microarrays: a tool to detect cis-acting elements near promoter regions in rice”.
The other results are listed elsewhere or left out.

By UniProt entry, the sequences of proteins in these tests, tags left out.
UniProt Q0JBA9, entry or part of it: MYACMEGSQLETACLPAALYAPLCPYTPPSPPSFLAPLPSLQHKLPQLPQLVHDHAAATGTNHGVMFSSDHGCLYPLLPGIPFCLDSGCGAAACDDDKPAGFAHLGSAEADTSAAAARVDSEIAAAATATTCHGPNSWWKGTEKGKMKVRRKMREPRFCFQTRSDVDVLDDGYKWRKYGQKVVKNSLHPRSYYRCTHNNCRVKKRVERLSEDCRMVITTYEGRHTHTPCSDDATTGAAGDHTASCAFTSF

The sequences below were run against OsWRKY34 (Oryza sativa, UniProt Q0JBA9 1-250) (assay: protein-binding microarray (RPBM); PBS, 2% BSA, 51.3 ng/ul salmon testes DNA, 50 uM zinc acetate, 200 nM TF, 25 C, 1 h; high values mean tight binding). Details: protein: recombinant; tags: N-terminal polyhistidine and DsRed monomer fusion (pET32a); label: CyDye5-dUTP incorporated in the synthesized complementary strand; 3' TTTTT single-stranded linker to array surface; dsDNA, one strand shown.
Summary of the method: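 Transcription factors were each fused at the N-terminus to a polyhistidine tag plus DsRed and expressed in E. coli BL21-CodonPlus before Ni–NTA purification. Binding to a double-stranded custom Agilent array was carried out with 200 nM protein at 25 °C for 1 h in PBS, 2% BSA, salmon testes DNA and 50 µM zinc acetate. The binding signal is per-feature fluorescence intensity, in arbitrary units, on an Axon 4000B scanner.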
For “GCTGATGTGTTTGTGCAGCTGGATTGGCTTTTCGCTAGAGCGGAGTCACCTAGTGCAG”, the binding signal was 9000 fluorescence intensity (a.u.). With “TTCGTACACATTTGGTCGCTGTAATTTTATTCCTTAAATGCGGAGTCACCTAGTGCAG” the binding signal was 9370 fluorescence intensity (a.u.). “TTTGAGTCTATCTCTCTCATCCAAGTCCTGTGTTTTTCATCGGAGTCACCTAGTGCAG” was tested, and the binding signal was 8670 fluorescence intensity (a.u.). In the case of “TGATTGTTTACTGCTTTCAAATTAACAATTCAATGGTTCTCGGAGTCACCTAGTGCAG”, the binding signal is reported as 8290 fluorescence intensity (a.u.). “CCTGCCGCTTGCCGCTCCGCTGTTCCCATCCCGCTCCCACCGGAGTCACCTAGTGCAG” was tested, and the binding signal was 8130 fluorescence intensity (a.u.). In the case of “ATTTTAGTTTCTTTACTGTAGTTTCTTTTGCTACCTTTTTCGGAGTCACCTAGTGCAG”, the binding signal is reported as 13000 fluorescence intensity (a.u.). “GGATTTGCTTGATGGATCCGGAGTCATATAACATGTTTGCCGGAGTCACCTAGTGCAG” was tested, and the binding signal was 8110 fluorescence intensity (a.u.). “GAGTCTTGATAAGTGCACCCATCTCATCTCATCTCCTACTCGGAGTCACCTAGTGCAG” was tested, and the binding signal was 8140 fluorescence intensity (a.u.). “ATTCGTCTCGCGGTTTACTGTCGGATTCTGTAATTAGTTTCGGAGTCACCTAGTGCAG” was tested, and the binding signal was 12900 fluorescence intensity (a.u.). With “CGGATACTGTAATTAGTTTTTTTATTAGTGTTCAAACACCCGGAGTCACCTAGTGCAG” the binding signal was 8470 fluorescence intensity (a.u.). With “GCGGTGCGTGACGGTGACCGGAGAGTCGGGGTGGGGCTGCCGGAGTCACCTAGTGCAG” the binding signal was 10400 fluorescence intensity (a.u.). With “GGCATCCACGTCGCGCTGTCCCGCGACGTCGCCGTCCTCACGGAGTCACCTAGTGCAG” the binding signal was 8280 fluorescence intensity (a.u.). In the case of “ATATATATATATATATATATATATATATATGTTCTTAGCACGGAGTCACCTAGTGCAG”, the binding signal is reported as 8220 fluorescence intensity (a.u.). “CTTTTGTTCTTTTGTGTGCTAGTTCAATTTTCTTATCTAACGGAGTCACCTAGTGCAG” was tested, and the binding signal was 8060 fluorescence intensity (a.u.). With “CCATTTTCTCCTGCGTTCTCTTTCTTTCTTCGAGCCACTTCGGAGTCACCTAGTGCAG” the binding signal was 8270 fluorescence intensity (a.u.). For “CATCTTCATCAGTTTCGCCTATGGACGTGTCATGTTATCTCGGAGTCACCTAGTGCAG”, the binding signal was 12900 fluorescence intensity (a.u.). For “GATCGTCGTCCGTGTCCTTGCTCGATTTGCTCCCCATCTTCGGAGTCACCTAGTGCAG”, the binding signal was 8900 fluorescence intensity (a.u.). With “TCGATCACACACGGACACAGAGTCTCCGCCGCATTTTCTTCGGAGTCACCTAGTGCAG” the binding signal was 8170 fluorescence intensity (a.u.). With “CCTCTTTCCTCCTCCAAATTAATCTCATCCTAATTCTGTTCGGAGTCACCTAGTGCAG” the binding signal was 12600 fluorescence intensity (a.u.). In the case of “CTATTTTATATCTTTTGCTTTGTTTTTGACCGCGGGAGGGCGGAGTCACCTAGTGCAG”, the binding signal is reported as 9380 fluorescence intensity (a.u.). “GCCAGACCGCCACCGTCCGTTTCCACAACCGTGCCAGTGCCGGAGTCACCTAGTGCAG” was tested, and the binding signal was 10700 fluorescence intensity (a.u.). With “TTGTAAGTTAGGGACCTGTTGTATCTGATTTTTTGGTTGACGGAGTCACCTAGTGCAG” the binding signal was 8210 fluorescence intensity (a.u.). With “TCCCACCTGTCTTCTCTGCTGACCAATCATCAGAAGGAGACGGAGTCACCTAGTGCAG” the binding signal was 8440 fluorescence intensity (a.u.). For “TCTAATCTCTTGCCATTTCCTTGTGCCTCGCTTGCTCATCCGGAGTCACCTAGTGCAG”, the binding signal was 9860 fluorescence intensity (a.u.). In the case of “ACTGTCCCATCGCTGCCAAGTGGTTTTGGCTTGTTCTTTCCGGAGTCACCTAGTGCAG”, the binding signal is reported as 10700 fluorescence intensity (a.u.). With “ACGAGTCGTCGGGCCCACCTGTCACTCACTCTACGCGACTCGGAGTCACCTAGTGCAG” the binding signal was 10600 fluorescence intensity (a.u.). “CATGGCAGTATAGAGCAATTTTTCCCCTGTTTTTGCTGACCGGAGTCACCTAGTGCAG” was tested, and the binding signal was 9920 fluorescence intensity (a.u.). “TCGATCATGAATCTGGTTTAACTTTTAACGCTGTCACGCACGGAGTCACCTAGTGCAG” was tested, and the binding signal was 9170 fluorescence intensity (a.u.). In the case of “ACCATCTTTTAAATCAGACCTCTCACCAATTTTGATATTTCGGAGTCACCTAGTGCAG”, the binding signal is reported as 8230 fluorescence intensity (a.u.). In the case of “TAATCAGGGGTGAGGAGATTAGTTTGTTTCTAAAAATCATCGGAGTCACCTAGTGCAG”, the binding signal is reported as 8180 fluorescence intensity (a.u.). For “ACCGCAAACATATTTCTTCTCTTTTTATATCTATAGCATCCGGAGTCACCTAGTGCAG”, the binding signal was 8060 fluorescence intensity (a.u.). For “GTGAAATCTCCTCTTGACCCCGCGATGACTACGCCGCACTCGGAGTCACCTAGTGCAG”, the binding signal was 8190 fluorescence intensity (a.u.). For “GGTTTTTTATTGCCTGGTTATTTTTCCTGCCCGGTTTTTTCGGAGTCACCTAGTGCAG”, the binding signal was 10500 fluorescence intensity (a.u.). For “CTATATGTCTGTATATGACTTCGCAATCAGCCAATCAATTCGGAGTCACCTAGTGCAG”, the binding signal was 9200 fluorescence intensity (a.u.). In the case of “CTTGCGGTTGCTTTTGTTCGTCTTCTCCCGGAGATTCGGCCGGAGTCACCTAGTGCAG”, the binding signal is reported as 8310 fluorescence intensity (a.u.). For “TTAGTTATTATTAGTGCAGGTGGAGGTGGAGGGCTTGCATCGGAGTCACCTAGTGCAG”, the binding signal was 8150 fluorescence intensity (a.u.). For “GTTGTGTTGTGCAAATTATGTGTATCTTGTAAAAAATCTTCGGAGTCACCTAGTGCAG”, the binding signal was 8270 fluorescence intensity (a.u.). With “GCATCTCTCGGCATCCACCGATCGGACCGGCCACCTCACACGGAGTCACCTAGTGCAG” the binding signal was 8050 fluorescence intensity (a.u.). In the case of “TCCCTCGCACCCCGATCCCACCCGTCCATTTTCTCCCTCACGGAGTCACCTAGTGCAG”, the binding signal is reported as 8570 fluorescence intensity (a.u.). In the case of “CTGTGGTCGGACCAGCCCGTGAAGGAAACCCGACGCTTTCCGGAGTCACCTAGTGCAG”, the binding signal is reported as 8160 fluorescence intensity (a.u.). In the case of “GGGTTCAAAGTCTCATATGCTAACTATATACTTGTTACTGCGGAGTCACCTAGTGCAG”, the binding signal is reported as 8120 fluorescence intensity (a.u.). With “GCCTGTGTGCGGCTTGCTTGCTTCATTTTCAGCCGATTTTCGGAGTCACCTAGTGCAG” the binding signal was 9760 fluorescence intensity (a.u.). In the case of “TTGCACGGTTTTCTCGCTCGCCGCCACACGGTCTACGAGACGGAGTCACCTAGTGCAG”, the binding signal is reported as 8240 fluorescence intensity (a.u.). With “GCCAGCATACATGTGGCAGTGAGACCCTCTGGCACCTTCACGGAGTCACCTAGTGCAG” the binding signal was 9160 fluorescence intensity (a.u.). “TCGCCGTCTCTGGCCTCCCTTTGCCTCTCACCAACCGGCTCGGAGTCACCTAGTGCAG” was tested, and the binding signal was 9520 fluorescence intensity (a.u.). With “TATTGCCATGTTGATTTGAAAAACATCCTCGTATTTTTCCCGGAGTCACCTAGTGCAG” the binding signal was 9410 fluorescence intensity (a.u.). For “CCCTTTCTTACCTGTGCCGGCTTTAACCAACGTATTCCTCCGGAGTCACCTAGTGCAG”, the binding signal was 8460 fluorescence intensity (a.u.). With “TCTTCTCCTCTCTCCTCTCACTGACCCGCCCCGCCTCCTTCGGAGTCACCTAGTGCAG” the binding signal was 8200 fluorescence intensity (a.u.). With “TACTGTTCTTCATCCACCTTTTGTTTTCCATGAACAAAAACGGAGTCACCTAGTGCAG” the binding signal was 9040 fluorescence intensity (a.u.). In the case of “TGCCACCACCGCCACCGCCAGCGAGCTGGATGAGCCAGCACGGAGTCACCTAGTGCAG”, the binding signal is reported as 9060 fluorescence intensity (a.u.). With “GGTTTTGTGATTTTGACACCCATTCAGGTTCGTTGTTTTTCGGAGTCACCTAGTGCAG” the binding signal was 11900 fluorescence intensity (a.u.). For “CTCATTTGACTTCATTGCTAGCGTGCGTCCATATTCTATACGGAGTCACCTAGTGCAG”, the binding signal was 9490 fluorescence intensity (a.u.). In the case of “CGCGCGCGCGCGGAGTTCTCTCTCTCTCCTGTTGACCACCCGGAGTCACCTAGTGCAG”, the binding signal is reported as 8130 fluorescence intensity (a.u.). For “CACCTCTGCTTCCCCGGCGATGTCTCTGCTTTGCGCTCCGCGGAGTCACCTAGTGCAG”, the binding signal was 9880 fluorescence intensity (a.u.).
